Earlier results in patent US4358458A, “Tertiary imidazolyl alcohols and method for the treatment of generalized and local infections caused by fungi and yeasts” (Nordmark-Werke GmbH, priority 1976, dated 1982).

Conditions: (Lit.); cited from earlier work

Clc1ccc(COC(Cn2ccnc2)c2ccc(Cl)cc2Cl)c(Cl)c1.O=[N+]([O-])O (stereo not drawn) [MICONAZOL, 1-[2,4-dichloro-β-(2,4-dichlorobenzyloxy)-phenethyl]imidazole nitrate, reference compound]
LD50 (mice): 578 mg/kg
